The source of these data is patent US20150266962A1.

Chains of the proteins cited; added tags and fusions are not shown. Residues count along the entry.
UniProt P35225, residues 35-146: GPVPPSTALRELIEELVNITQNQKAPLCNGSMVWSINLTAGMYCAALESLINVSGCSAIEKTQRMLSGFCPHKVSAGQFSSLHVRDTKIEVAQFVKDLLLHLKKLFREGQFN

In assay [1] the target is IL-13 (UniProt P35225). Put plainly: competition ELISA, competitor of biotinylated IL-13Rα2-Fc for IL-13 (FIG. 3).
Assay [2] has as its target IL-13 (UniProt P35225). The experiment in a line: competition ELISA: IL-13 captured on an anti-Flag coated plate, constant amounts of IL-13 and biotinylated IL-13Rα2-Fc (the competitor), detected with streptavidin-HRP.

No constants are given. Whether binding was seen depends on the method and setting. Some binding calls cover weakened binding; strength is not graded here.

B1: naked IL-13Rα2 (positive control competitor) (receptor, not shown: a dimerising Fc or GST; large carriers; small tags and cut ends)
chain: DTEIKVNPPQDFEIVDPGYLGYLYLQWQPPLSLDHFKECTVEYELKYRNIGSETWKTIITKNLHYKDGFDLNKGIEAKIHTLLPWQCTNGSEVQSSWAETTYWISPQGIPETKVQDMDCVYYNWQYLLCSWKPGIGVLLDTNYNLFYWYEGLDHALQCVDYIKADGQNIGCRFPYLEASDYKDFYICVNGSSENKPIRSSYFTFQLQNIVKPLPPVYLTFTRESSCEIKLKWSIPLGPIPARCFDYEIEIREDDTTLVTATVENETYTLKTTNETRQLCFVVRSKVNIYCSDDGIWSEWSDKQCWEGEDLSKKTLLR
For B1, the binding entry in assay [1] and in assay [2] was “binds” in each case.
